Laboratory results as given in US20250320268A1 (SHATTUCK LABS, published 2025).
These are yes or no findings as the source states them, for the method shown. Some results given as binding are weak or reduced against the parent protein; the word gives no strength. Sequences can lack the tags named with a protein.

Tests used:
recombinant mouse CD47 [1] = target: T1, recombinant mouse CD47 (mouse, UniProt Q61735 19-140, limits assumed); assay: dual functional ELISA (FIG. 9E)
T1 construct: also called mCD47-Fc
T1 sequence (looked up): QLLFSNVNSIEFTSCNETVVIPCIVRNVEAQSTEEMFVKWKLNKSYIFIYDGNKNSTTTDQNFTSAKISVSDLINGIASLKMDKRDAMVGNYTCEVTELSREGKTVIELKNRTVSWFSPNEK

[2] = target: T2, recombinant mouse CD40 (mouse) (UniProt P27512); assay: dual functional ELISA (FIG. 9E)
T2 sequence (looked up): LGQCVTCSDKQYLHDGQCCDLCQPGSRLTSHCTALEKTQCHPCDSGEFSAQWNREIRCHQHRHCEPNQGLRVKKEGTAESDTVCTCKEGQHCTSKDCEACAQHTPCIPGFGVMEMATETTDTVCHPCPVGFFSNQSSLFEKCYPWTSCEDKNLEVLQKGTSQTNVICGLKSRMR

recombinant mouse CD47 [3] = target: T1, recombinant mouse CD47; assay: dual functional ELISA (legend of FIG. 9E)
[4] = target: T2, recombinant mouse CD40 (mouse); assay: dual functional ELISA (legend of FIG. 9E)
[5] = target: T2, recombinant mouse CD40 (mouse); assay: dual ELISA: coat mCD47-Fc, detect mCD40-His, tertiary anti-his-HRP

binding (recombinant mouse CD47 [1]): binds
binding [2]: binds
binding (recombinant mouse CD47 [3]): binds
binding [4]: binds
binding [5]: binds
B1: murine SIRPα-Fc-CD40L chimeric protein surrogate (Fc fusion)
chain: KELKVTQPEKSVSVAAGDSTVLNCTLTSLLPVGPIRWYRGVGPSRLLIYSFAGEYVPRIRNVSDTTKRNNMDFSIRISNVTPADAGIYYCVKFQKGSSEPDTEIQSGGGTEVYVLAKPSPPEVSGPADRGIPDQKVNFTCKSHGFSPRNITLKWFKDGQELHPLETTVNPSGKNVSYNISSTVRVVLNSMDVNSKVICEVAHITLDRSPLRGIANLSNFIRVSPTVKVTQQSPTSMNQVNLTCRAERFYPEDLQLIWLENGNVSRNDTPKNLTKNTDGTYNYTSLFLVNSSAHREDVVFTCQVKHDQQPAITRNHTVLGFAHSSDQGSMQTFPDNNATHNWNVPRDCGCKPCICTVPEVSSVFIFPPKPKDVLTITLTPKVTCVVVDISKDDPEVQFSWFVDDVEVHTAQTQPREEQFNSTFRSVSELPIMHQDWLNGKEFKCRVNSAAFPAPIEKTISKTKGRPKAPQVYTIPPPKEQMAKDKVSLTCMITDFFPEDITVEWQWNGQPAENYKNTQPIMNTNGSYFVYSKLNVQKSNWEAGNTFTCSVLHEGLHNHHTEKSLSHSPGKHRRLDKVEEEVNLHEDFVFIKKLKRCNKGEGSLSLLNCEEMRRQFEDLVKDITLNKEEKKENSFEMQRGDEDPQIAAHVVSEANSNAASVLQWAKKGYYTMKSNLVMLENGKQLTVKREGLYYVYTQVTFCSNREPSSQRPFIVGLWLKPSSGSERILLKAANTHSSSQLCEQQSVHLGGVFELQAGASVFVNVTEASQVIHRVGFSSFGLLKL
notes: also called mSIRPα-Fc-CD40L; mouse SIRPα-Fc-CD40L
